Taken from: PubChem BioAssay AID652272 (Drosophila RNAi Screening Center, 2013)
The deposit covers about 21,000 reagents; this is an unselected part of those that have a named target and a result. Over the whole deposit, 503 (2.4%) got an active call. 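Raw plate light values, not normalised; calls rest on replicate z-scores that were not deposited; hits include reporter decreases as well as increases.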 The record does not give: the amount of reagent, the time to read-out.

Purpose: 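Finding fly genes that regulate Hedgehog signal transduction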 (primary screen)
Cell system: Drosophila clone 8 (Cl8) cells
Reagents: long dsRNA against Drosophila genes
Detection: 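Firefly light from a Hedgehog-responsive ptc promoter reporter and Renilla reference light, both read on a plate reader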
Reading the numbers: firefly Hh reporter signal: higher = more ptc reporter light; Renilla reference signal: higher = more Renilla control light
Hit rule: 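Hit when the z-score averaged over two replicates is under -2 or over +3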
Calls: active = hit: reporter lowered or raised; inactive = not a hit

Mmp2 [DRSC06698]
- firefly Hh reporter signal, replicate 1: 1.38e5
- firefly Hh reporter signal, replicate 2: 76208
- Renilla reference signal, replicate 1: 3353
- Renilla reference signal, replicate 2: 6624
- Call: inactive

CG12607 [DRSC08287]
- firefly Hh reporter signal, replicate 1: 54009
- firefly Hh reporter signal, replicate 2: 49829
- Renilla reference signal, replicate 1: 1073
- Renilla reference signal, replicate 2: 3888
- Call: active

kipf [DRSC15446]
- firefly Hh reporter signal, replicate 1: 1.37e5
- firefly Hh reporter signal, replicate 2: 4.23e5
- firefly Hh reporter signal, replicate 3: 1.76e5
- Renilla reference signal, replicate 1: 4599
- Renilla reference signal, replicate 2: 3161
- Call: inactive

Gr61a [DRSC08358]
- firefly Hh reporter signal, replicate 1: 63728
- firefly Hh reporter signal, replicate 2: 46016
- Renilla reference signal, replicate 1: 1955
- Renilla reference signal, replicate 2: 3760
- Call: inactive

Atg17 [DRSC12221]
- firefly Hh reporter signal, replicate 1: 93877
- firefly Hh reporter signal, replicate 2: 1.40e5
- Renilla reference signal, replicate 1: 3649
- Renilla reference signal, replicate 2: 4445
- Call: inactive

Ser [DRSC16856]
- firefly Hh reporter signal, replicate 1: 1.12e5
- firefly Hh reporter signal, replicate 2: 1.19e5
- Renilla reference signal, replicate 1: 3654
- Renilla reference signal, replicate 2: 2844
- Call: inactive

CG34011 [DRSC00888]
- firefly Hh reporter signal, replicate 1: 4.12e5
- firefly Hh reporter signal, replicate 2: 1.61e5
- Renilla reference signal, replicate 1: 20587
- Renilla reference signal, replicate 2: 7219
- Call: inactive

Records listed so far called active:
CG12607 [DRSC08287]
- firefly Hh reporter signal, replicate 1: 54009
- firefly Hh reporter signal, replicate 2: 49829
- Renilla reference signal, replicate 1: 1073
- Renilla reference signal, replicate 2: 3888
- Call: active

Further results:
CG1636 [DRSC18111]
- firefly Hh reporter signal, replicate 1: 1.40e5
- firefly Hh reporter signal, replicate 2: 7.18e5
- firefly Hh reporter signal, replicate 3: 1.05e5
- Renilla reference signal, replicate 1: 3353
- Renilla reference signal, replicate 2: 39473
- Call: inactive

CG43316 [DRSC06297]
- firefly Hh reporter signal, replicate 1: 63301
- firefly Hh reporter signal, replicate 2: 33321
- Renilla reference signal, replicate 1: 1568
- Renilla reference signal, replicate 2: 2684
- Call: inactive

Prosalpha3T [DRSC15226]
- firefly Hh reporter signal, replicate 1: 1.16e5
- firefly Hh reporter signal, replicate 2: 1.51e5
- Renilla reference signal, replicate 1: 4560
- Renilla reference signal, replicate 2: 5185
- Call: inactive

CG33557 [DRSC17854]
- firefly Hh reporter signal, replicate 1: 66922
- firefly Hh reporter signal, replicate 2: 2.17e5
- Renilla reference signal, replicate 1: 1964
- Renilla reference signal, replicate 2: 9335
- Call: inactive

beta'COP [DRSC03492]
- firefly Hh reporter signal, replicate 1: 21393
- firefly Hh reporter signal, replicate 2: 35676
- Renilla reference signal, replicate 1: 1612
- Renilla reference signal, replicate 2: 2411
- Call: active

CG30338 [DRSC05166]
- firefly Hh reporter signal, replicate 1: 97158
- firefly Hh reporter signal, replicate 2: 2.53e5
- Renilla reference signal, replicate 1: 8572
- Renilla reference signal, replicate 2: 10986
- Call: inactive

bves [DRSC20520]
- firefly Hh reporter signal, replicate 1: 99776
- firefly Hh reporter signal, replicate 2: 1.66e5
- Renilla reference signal, replicate 1: 3669
- Renilla reference signal, replicate 2: 6672
- Call: inactive

bves [DRSC20554]
- firefly Hh reporter signal, replicate 1: 1.12e5
- firefly Hh reporter signal, replicate 2: 2.42e5
- Renilla reference signal, replicate 1: 4563
- Renilla reference signal, replicate 2: 10628
- Call: inactive

bves [DRSC20555]
- firefly Hh reporter signal, replicate 1: 1.09e5
- firefly Hh reporter signal, replicate 2: 2.32e5
- Renilla reference signal, replicate 1: 4299
- Renilla reference signal, replicate 2: 10539
- Call: inactive
